Assay results: article PMC5414350
These are yes or no findings as the source states them, for the method shown. Binding can be weak; no strength is given.

Biological target: Ms2 (=PG5_(P1593S)) protein (Triticum aestivum (common wheat))
Assay: two-hybrid; pairwise yeast two-hybrid with AD (pGADT7) and BD (pGBKT7) fusions; DDO, TDO and QDO media

Substance: ms2 (=PG5_(P1076F)) protein (from UniProt A0A1D5Y5U2)
- binding: binds
